Like-named read-outs stand apart in the source and are kept apart here. Results are given in words; binding and its absence hold for the method and conditions named. In cells and extracts the contact can be indirect. These calls come from enrichment with a bait or labelling near it, and not all partners need be listed.
T1: Gpl1-TAP (S. pombe) (UniProt Q9HE07)
T1 sequence: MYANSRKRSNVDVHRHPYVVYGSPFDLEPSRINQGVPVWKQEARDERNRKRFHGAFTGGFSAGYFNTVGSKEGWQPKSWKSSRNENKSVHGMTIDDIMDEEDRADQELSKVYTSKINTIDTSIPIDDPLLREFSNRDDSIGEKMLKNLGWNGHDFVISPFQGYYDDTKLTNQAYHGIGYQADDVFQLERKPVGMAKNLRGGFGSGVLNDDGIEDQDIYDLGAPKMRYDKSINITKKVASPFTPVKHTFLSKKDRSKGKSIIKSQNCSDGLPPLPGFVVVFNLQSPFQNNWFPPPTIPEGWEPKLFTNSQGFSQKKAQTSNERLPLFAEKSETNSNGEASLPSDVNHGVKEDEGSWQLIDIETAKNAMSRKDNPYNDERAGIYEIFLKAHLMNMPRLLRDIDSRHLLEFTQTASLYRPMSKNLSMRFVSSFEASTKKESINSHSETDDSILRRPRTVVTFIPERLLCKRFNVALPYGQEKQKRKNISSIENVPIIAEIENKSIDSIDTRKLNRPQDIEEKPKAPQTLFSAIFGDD

B1: SPAC20H4.09 (protein, UniProt Q9HE06 1-647)
chain: MPNEFISQSLSTLTNTPLNIQKKLLPITKYRNQLLYAVEQNQITIVLGHTGCGKTTQIPQFLYEAGWASQNGIIGCTQPRRLVAKSVSERVSLELNSPPGSLCGYSIQFDHNVSEKTKIKYMTDGILLNEIFFDPLLERYSIVILDEVHERTLSTDLLLGVLKRILEKRNDFRLVLSSASVDANKLSQFFGQDKVCTMSIEGKLFPVETLFLQKPTENYVDSAIETVININSTYPPGDILVFLSGRKEIEYCIKKIEDSLIHASEDCQTLVPLPLHAGLTVDEQMRVFNIYDGDFRKVIFSTNIAETSITIDGIVYVVDSGFNKQRIYNPYTRTSKLINVPISKSSAIQRSGRAGRTMRGKVFRLYTEKAYSLMKEEFEADILNCDMSPLVLFLKGLGLKNILQFPFFVRPPTVHLMAALEDLYLLGVLDESGNLTDPLGIQISNSFLDANISKALLTSNQFGCTHEILSIASILTAGEVFYNPTSSSKNDAFVAHSSFFANEGDIITALNVFESFVGNKKDLQWCRKNYLNYQTLRQALDIRTHLVRFLNKFSIPTAQRLPSSDCSKILKCLLDGFVRNVAHLQNDGSYKTIGGKQVWLDSSSVLHEKKTPWIMYSSAVESETQIFVKNISKIESFWLDKYYKREK

What was measured:
[1] = target: T1, Gpl1-TAP (S. pombe); experiment: affinity purification with mass spectrometry; tandem affinity purification of TAP-tagged bait from extracts of cycling S. pombe cells (IPP150 buffer: 50 mM Tris pH 8.0, 150 mM NaCl, 10% glycerol, 0.1% NP-40); IgG Sepharose, TEV cleavage, Calmodulin Sepharose, EGTA elution; eluates analysed by LC-MS/MS
[2] = target: T1, Gpl1-TAP (S. pombe); experiment: as above; remark: listed apart in the source

Molecule	binding [1]	binding [2]
Nrl1 (NRDE-2 like 1) (S. pombe (endogenous in S. pombe cells))	binds	–
B1	–	binds

— article PMC6619935
